Experimental data: the supplement of paper PMC9578143, “Small-Molecule Ebselen Binds to YTHDF Proteins Interfering with the Recognition of N^6-Methyladenosine-Modified RNAs” (ACS Pharmacology & Translational Science, 2022)
The other results are listed elsewhere or left out. Plates or batches differ in their baseline, so values are only roughly comparable.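 Hits were defined as a z-score below −3.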

Molecular target: T1, YTHDF1 YTH domain (aa 365-554) (UniProt Q9BYJ9)
T1 sequence (whole entry): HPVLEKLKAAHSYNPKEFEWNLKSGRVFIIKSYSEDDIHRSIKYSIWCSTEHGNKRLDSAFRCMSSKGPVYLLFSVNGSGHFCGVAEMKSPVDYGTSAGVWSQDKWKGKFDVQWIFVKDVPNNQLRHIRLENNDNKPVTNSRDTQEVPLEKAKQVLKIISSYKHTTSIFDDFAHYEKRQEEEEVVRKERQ
Assay: tryptophan fluorescence intensity z-score (mean); higher = higher fluorescence, less quenching (negative = binding / quenching)
Settings: 10 µM

Tryptophan fluorescence intensity z-score, inactive:
O=C(NC1CCCCC1)NC1CCCCC1 (plate: M 23-24) 0.357
CN(C/C=C/C#CC(C)(C)C)Cc1cccc2ccccc12 (plate: M 11-12) 0.0666
Fc1ccc([C@@H]2CCNC[C@H]2COc2ccc3c(c2)OCO3)cc1 (plate: M 9-10) 0.24
C[C@@]12C[C@@]3(O)O[C@@H](O1)[C@]1(COC(=O)c4ccccc4)[C@H]3C[C@@]12O[C@@H]1O[C@H](CO)[C@@H](O)[C@H](O)[C@H]1O (plate: M 21-22) 0.367
O=C1CCc2cc(OCCCCc3nnnn3C3CCCCC3)ccc2N1 (plate: M 9-10) -0.634
CCS(=O)(=O)CCn1c([N+](=O)[O-])cnc1C (plate: M 7-8) 0.0123
CCCCOc1cc(C(=O)NCCN(CC)CC)c2ccccc2n1 (plate: M 1-2) 0.372
COc1cc(OC)c2c(c1)OC(c1ccccc1)CC2=O (centres undefined) (plate: M 17-18) 0.183
COc1ccc2cc1Oc1ccc(cc1)C[C@H]1c3cc(c(OC)cc3CCN1C)Oc1c(OC)c(OC)cc3c1[C@H](C2)N(C)CC3 (plate: M 19-20) 0.236
Sc1nc2ccccc2s1 (plate: M 23-24) -0.19
CC(C)=CCC[C@](C)(O)C1CC=C(C)CC1 (some centres undefined) (plate: M 17-18) 0.372
COC(=O)C[C@H]1C(C)(C)C(=O)[C@@H]2CC3=C4CC(=O)O[C@@H](c5ccoc5)[C@]4(C)CC[C@@H]3[C@@]1(C)C2=O (plate: M 13-14) 0.828
COc1ccc(C(=O)CC(=O)O)c2c1C=CC(C)(C)O2 (plate: M 19-20) 0.0386
C=C(C)[C@@H]1CC=C(C(=O)O)CC1 (plate: M 19-20) 0.628
C[C@]12C=CC(=O)C=C1CC[C@@H]1[C@@H]2[C@@H](O)C[C@@]2(C)[C@H]1CC[C@]2(O)C(=O)COC(=O)CCC(=O)O (plate: M 11-12) 0.351
CCCCCCc1ccc(O)cc1O (plate: M 3-4) -0.756
CC1(C)NC(=O)N(c2ccc([N+](=O)[O-])c(C(F)(F)F)c2)C1=O (plate: M 9-10) -0.267
CC(=O)[C@H]1CC[C@H]2[C@@H]3C[C@H](C)C4=CC(=O)CC[C@]4(C)[C@H]3[C@@H](O)C[C@]12C (plate: M 3-4) 0.0246
COC(=O)c1c(C)cc(O)cc1O (plate: M 21-22) 0.621

2 entries picked at random from those above, as already listed:
Tryptophan fluorescence intensity z-score, inactive:
C[C@]12C=CC(=O)C=C1CC[C@@H]1[C@@H]2[C@@H](O)C[C@@]2(C)[C@H]1CC[C@]2(O)C(=O)COC(=O)CCC(=O)O (plate: M 11-12) 0.351
CN(C/C=C/C#CC(C)(C)C)Cc1cccc2ccccc12 (plate: M 11-12) 0.0666
